ChEMBL document CHEMBL4190408 (J Med Chem, 2018)
Converted amounts (≈) assume the structure as drawn.

Amino acid sequences for entries named in this document (tags omitted). A change or cut given only in a name is not applied to a line headed by its entry.
UniProt Q12809: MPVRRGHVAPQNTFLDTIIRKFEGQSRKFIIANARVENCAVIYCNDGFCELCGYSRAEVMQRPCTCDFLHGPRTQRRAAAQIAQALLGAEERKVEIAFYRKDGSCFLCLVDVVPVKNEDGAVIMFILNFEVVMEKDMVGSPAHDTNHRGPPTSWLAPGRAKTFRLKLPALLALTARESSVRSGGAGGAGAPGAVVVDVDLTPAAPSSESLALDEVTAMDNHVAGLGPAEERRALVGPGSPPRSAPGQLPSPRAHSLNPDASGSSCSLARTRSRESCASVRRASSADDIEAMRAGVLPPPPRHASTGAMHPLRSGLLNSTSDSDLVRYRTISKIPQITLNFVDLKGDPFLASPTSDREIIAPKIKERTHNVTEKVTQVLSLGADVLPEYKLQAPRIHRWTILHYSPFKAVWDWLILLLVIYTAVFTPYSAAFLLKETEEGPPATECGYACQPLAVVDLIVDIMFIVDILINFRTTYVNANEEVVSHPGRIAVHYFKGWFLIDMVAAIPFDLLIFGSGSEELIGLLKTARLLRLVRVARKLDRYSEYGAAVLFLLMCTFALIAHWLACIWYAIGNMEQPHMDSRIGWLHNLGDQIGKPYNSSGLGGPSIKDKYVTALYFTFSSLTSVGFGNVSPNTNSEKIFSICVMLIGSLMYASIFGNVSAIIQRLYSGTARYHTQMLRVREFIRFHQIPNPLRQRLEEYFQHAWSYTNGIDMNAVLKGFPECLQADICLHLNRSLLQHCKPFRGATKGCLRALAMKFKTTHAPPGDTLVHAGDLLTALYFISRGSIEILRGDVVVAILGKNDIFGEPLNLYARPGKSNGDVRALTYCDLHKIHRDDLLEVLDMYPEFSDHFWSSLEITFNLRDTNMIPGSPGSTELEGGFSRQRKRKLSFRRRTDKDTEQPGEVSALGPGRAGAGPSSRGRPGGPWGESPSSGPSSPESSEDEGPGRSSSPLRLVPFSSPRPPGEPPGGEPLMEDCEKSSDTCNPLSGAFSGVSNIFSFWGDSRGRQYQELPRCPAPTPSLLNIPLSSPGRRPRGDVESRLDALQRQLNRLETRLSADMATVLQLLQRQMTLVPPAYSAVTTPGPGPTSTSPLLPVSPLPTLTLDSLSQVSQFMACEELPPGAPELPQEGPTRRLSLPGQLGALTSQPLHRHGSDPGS

Experiments:
[1] = physchem; settings: buffer, pH 7.4
[2] = physchem; settings: buffer, pH 7.4; remark: listed apart in the source
[3] = molecular target: Voltage-gated inwardly rectifying potassium channel KCNH2 (Homo sapiens, UniProt Q12809)

SMILES: COc1ccc(NC(=O)N2CCN(c3nc(N)nc4sc(-c5cccnc5)nc34)CC2)cc1
- solubility kinetic at 1.5 h [1]: 32 µM (≈ 14.8 µg/mL)
- logD at 1.5 h [2]: 3.06
- IC50 [3]: 2200 nM
